{"source": "patent US11312758B2", "about": "“Peptides with vasodilatory and/or diuretic functions” (National University of Singapore, priority 2016, dated 2022)", "key": {"[1]": {"system": "anesthetized male SD rats", "experiment": "In-vivo activity assay: peptide infusion in anesthetized rats (MAP, HR, PP, urine flow)", "parameters": "species or system rat", "description": "Male Sprague-Dawley (SD) rats (220-280 g) were obtained from Invivos, Singapore. Animals were acclimatized in the Animal Holding unit, NUS for 3 days before the experiment. The experiments were conducted under the guidance and approval of Institutional Animal Care and Use Committee, NUS (041/12).\nThe experiments were performed as described in Sridharan et al., [Biochem J 469 (2): 255-66 (2015)]. In brief, animals were anesthetized with sodium pentobarbital (60-70 mg/kg) and catheters were inserted in femoral artery, vein and urinary bladder. The body temperature of the animals was maintained using a thermostatic heat pad at 37° C. Continuous infusions (2 ml/h) of 0.2% BSA saline (with or without peptide) was administered through the femoral vein while a pressure transducer attached to the femoral artery recorded on-line changes in mean arterial pressure (MAP), heart rate (HR) and pulse pressure (PP). Urine was collected and the volume was measured after every 10 min. Experiments encompassed control (2×10 min), experimental (1×10 min) and recovery (4×10 min) periods. All animals were euthanized at the end of the experiment in carbon-di-oxide chambers."}, "[2]": {"target": "T1, rat NPR-A (Rattus norvegicus, UniProt P18910)", "T1 construct": "expressed in transfected cells; host or cells: CHO-K1", "T1 sequence (P18910 29-1057)": "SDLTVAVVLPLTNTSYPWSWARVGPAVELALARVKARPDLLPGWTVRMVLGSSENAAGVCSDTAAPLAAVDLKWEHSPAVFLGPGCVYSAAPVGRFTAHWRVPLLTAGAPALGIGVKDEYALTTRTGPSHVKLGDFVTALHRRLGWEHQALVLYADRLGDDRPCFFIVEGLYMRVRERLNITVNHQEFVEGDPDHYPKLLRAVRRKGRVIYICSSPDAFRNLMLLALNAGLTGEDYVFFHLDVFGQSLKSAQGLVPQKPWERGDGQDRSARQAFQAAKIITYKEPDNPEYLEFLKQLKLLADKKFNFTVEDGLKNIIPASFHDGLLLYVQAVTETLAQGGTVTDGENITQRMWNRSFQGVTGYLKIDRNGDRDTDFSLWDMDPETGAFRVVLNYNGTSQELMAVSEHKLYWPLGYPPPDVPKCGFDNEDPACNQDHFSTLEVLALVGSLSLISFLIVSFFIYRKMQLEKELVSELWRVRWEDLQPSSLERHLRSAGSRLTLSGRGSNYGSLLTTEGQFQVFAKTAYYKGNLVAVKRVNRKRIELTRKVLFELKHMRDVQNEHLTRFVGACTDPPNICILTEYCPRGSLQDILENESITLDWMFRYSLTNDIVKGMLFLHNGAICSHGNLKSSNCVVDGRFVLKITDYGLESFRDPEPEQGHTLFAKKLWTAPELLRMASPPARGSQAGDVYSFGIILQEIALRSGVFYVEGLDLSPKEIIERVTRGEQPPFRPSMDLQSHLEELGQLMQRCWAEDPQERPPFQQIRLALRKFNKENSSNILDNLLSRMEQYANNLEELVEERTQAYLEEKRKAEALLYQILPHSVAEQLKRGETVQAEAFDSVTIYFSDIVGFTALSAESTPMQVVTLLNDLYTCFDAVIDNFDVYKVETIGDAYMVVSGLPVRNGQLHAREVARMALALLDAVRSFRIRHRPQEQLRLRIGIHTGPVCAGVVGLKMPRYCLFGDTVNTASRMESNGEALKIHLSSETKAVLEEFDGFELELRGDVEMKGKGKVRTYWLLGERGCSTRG", "experiment": "Whole cell cGMP assay, 30 min end-point dose-response in CHO-K1 cells transiently expressing NPR-A", "assay_type": "cell-based", "description": "(§1) The experiments were performed as described in Sridharan et al., [Biochem J 469 (2): 255-66 (2015)]. Dulbecco's modified Eagle's medium supplemented with 10% fetal bovine serum, 100 U/ml penicillin and 100 μg/ml streptomycin and 2 mM glutamine was used to grow CHO-K1 cells in a humidified incubator at 37° C. with 5% CO2. The cells were maintained by sub-culturing using 0.5% trypsin every three days. Cells (1×10^5) were seeded per well in 24-well plate and grown for 16 h. Cells in each well were transfected with 0.8 μg of plasmid encoding rat NPR-A using 2 μl of Lipofectamine™ 2000 transfection reagent. Cells were treated with the peptides 24 h after transfection.\nNPR-A transfected CHO-K1 cells were treated with varying concentrations of peptides (10 nM to 10 μM dissolved in basal media containing 0.5 mM IBMX) for 30 min. The end-point accumulation of cGMP was measured after cell-lysis with 200 μl of 0.1 N HCl using Enzo life sciences cGMP ELISA kit (manufacturer's protocol)."}, "[3]": {"target": "T1, rat NPR-A", "experiment": "Time-chase study of cGMP accumulation (NPR-A activation kinetics) at EC50 concentration of peptide", "assay_type": "cell-based", "description": "as §1\nTime-chase study was performed by treating the cells with EC50 concentration of the peptides. The reactions were terminated at the indicated time-points (0, 2, 5, 10, 20 and 30 min) by treating the cells with 0.1 N HCl. The cGMP concentration in the cell lysate was measured using cGMP ELISA kit (Enzo life sciences)."}, "[4]": {"system": "anesthetized male SD rats", "settings": "2 nmol/kg/min infusion; Sridharan et al. 2015; cited from earlier work"}, "[5]": {"target": "T1, rat NPR-A", "settings": "Sridharan and Kini 2015; cited from earlier work"}}, "note": "Like-named read-outs stand apart in the source and are kept apart here. Part of at least one peptide drawing is inferred or uncertain, most often the ends. Positions of bridges follow the written chain, without caps; N, C: chain ends. Residues, ends and D or L forms follow the SMILES beside them.", "data": [{"smiles": "CC[C@H](C)[C@@H]1NC(=O)[C@H](CC(=O)O)NC(=O)[C@H](CO)NC(=O)[C@H]([C@@H](C)O)NC(=O)[C@H](Cc2c[nH]cn2)NC(=O)[C@H](CO)NC(=O)[C@H]([C@@H](C)CC)NC(=O)[C@H](CCCNC(=N)N)NC(=O)[C@H](CC(=O)O)NC(=O)[C@H]([C@@H](C)CC)NC(=O)[C@H](CCCNC(=N)N)NC(=O)[C@H](CCCNC(=N)N)NC(=O)[C@H](CC(=O)O)NC(=O)[C@H](Cc2ccccc2)NC(=O)[C@@H](NC(=O)[C@H](CO)NC(=O)[C@@H](NC(=O)[C@H](CC(C)C)NC(=O)[C@H](CC(C)C)NC(=O)CN)[C@@H](C)CC)CSSC[C@@H](C(=O)N[C@@H](CCCNC(=N)N)C(=O)N[C@@H](Cc2c[nH]cn2)C(=O)O)NC(=O)CNC1=O", "note": "[K-Ring] (H-GLLISCFDRRIDRISHTSDIGCRH-OH; disulfide 6-22; N-terminus and C-terminus assumed)", "values": [{"measurement": "HR Rate of change per unit change in MAP", "setting": "[1]; 2 nmol/kg/min infusion", "result": 1.7}, {"measurement": "PP Rate of change per unit change in MAP", "setting": "[1]; 2 nmol/kg/min infusion", "result": 0.5}, {"measurement": "Heart rate Peak response", "setting": "[1]; 2.0 nmol/kg/min infusion", "result": "−22.2±12.1", "unit": "BPM"}, {"measurement": "Heart rate Peak time", "setting": "[1]; 2.0 nmol/kg/min infusion", "result": 20, "unit": "min"}, {"measurement": "Mean arterial pressure Peak response", "setting": "[1]; 2.0 nmol/kg/min infusion", "result": "−11.8 ± 2.4", "unit": "mmHg"}, {"measurement": "Mean arterial pressure Peak time", "setting": "[1]; 2.0 nmol/kg/min infusion", "result": 30, "unit": "min"}, {"measurement": "Pulse pressure Peak response", "setting": "[1]; 2.0 nmol/kg/min infusion", "result": "−4.5±1.7", "unit": "mmHg"}, {"measurement": "Pulse pressure Peak time", "setting": "[1]; 2.0 nmol/kg/min infusion", "result": 20, "unit": "min"}, {"measurement": "Urine flow rate Peak response", "setting": "[1]; 2.0 nmol/kg/min infusion", "result": "<2", "unit": "µL/min"}, {"measurement": "Heart rate Peak response", "setting": "[1]; 10.0 nmol/kg/min infusion", "result": "−24.9 ± 4.3", "unit": "BPM"}, {"measurement": "Heart rate Peak time", "setting": "[1]; 10.0 nmol/kg/min infusion", "result": 30, "unit": "min"}, {"measurement": "Mean arterial pressure Peak time", "setting": "[1]; 10.0 nmol/kg/min infusion", "result": 30, "unit": "min"}, {"measurement": "Pulse pressure Peak response", "setting": "[1]; 10.0 nmol/kg/min infusion", "result": "−5.6 ± 2.6", "unit": "mmHg"}, {"measurement": "Pulse pressure Peak time", "setting": "[1]; 10.0 nmol/kg/min infusion", "result": 30, "unit": "min"}, {"measurement": "Urine flow rate Peak response", "setting": "[1]; 10.0 nmol/kg/min infusion", "result": "<2", "unit": "µL/min"}, {"measurement": "change in urine volume", "setting": "[1]; 5-times higher dose (10 nmol/kg/min)", "result": "without affecting urine volume"}, {"measurement": "NPR-A activation potency, Ratio compared ANP", "setting": "[2]", "result": 14.1}, {"measurement": "NPR-A activation potency, Ratio compared wild type NPs", "setting": "[2]; negative = more potent than wild type", "result": 1}, {"measurement": "Rate of generation of cGMP, Ratio compared ANP", "setting": "[3]", "result": 349.6}, {"measurement": "Rate of generation of cGMP, Ratio compared wild type NPs", "setting": "[3]", "result": 1}, {"measurement": "Rate of generation of cGMP", "setting": "[3]; EC50 concentration of peptide", "result": 0.0228, "unit": "pmol cGMP/pmol peptide"}, {"measurement": "time to produce similar levels of cGMP", "setting": "[3]; EC50 concentration of peptide", "result": 30, "unit": "min"}, {"measurement": "change in urine volume", "setting": "[4]", "result": "without significant changes in urine volume"}, {"measurement": "drop in mean arterial pressure (MAP)", "setting": "[4]", "result": 12, "unit": "mmHg"}, {"measurement": "fold lower NPR-A potency compared to ANP", "setting": "[5]", "result": 10, "unit": "fold"}]}]}
